Assay results: article doi:10.1101/2025.05.28.656747

By UniProt entry, the sequences of proteins in these tests, tags left out.
UniProt Q9UQE7: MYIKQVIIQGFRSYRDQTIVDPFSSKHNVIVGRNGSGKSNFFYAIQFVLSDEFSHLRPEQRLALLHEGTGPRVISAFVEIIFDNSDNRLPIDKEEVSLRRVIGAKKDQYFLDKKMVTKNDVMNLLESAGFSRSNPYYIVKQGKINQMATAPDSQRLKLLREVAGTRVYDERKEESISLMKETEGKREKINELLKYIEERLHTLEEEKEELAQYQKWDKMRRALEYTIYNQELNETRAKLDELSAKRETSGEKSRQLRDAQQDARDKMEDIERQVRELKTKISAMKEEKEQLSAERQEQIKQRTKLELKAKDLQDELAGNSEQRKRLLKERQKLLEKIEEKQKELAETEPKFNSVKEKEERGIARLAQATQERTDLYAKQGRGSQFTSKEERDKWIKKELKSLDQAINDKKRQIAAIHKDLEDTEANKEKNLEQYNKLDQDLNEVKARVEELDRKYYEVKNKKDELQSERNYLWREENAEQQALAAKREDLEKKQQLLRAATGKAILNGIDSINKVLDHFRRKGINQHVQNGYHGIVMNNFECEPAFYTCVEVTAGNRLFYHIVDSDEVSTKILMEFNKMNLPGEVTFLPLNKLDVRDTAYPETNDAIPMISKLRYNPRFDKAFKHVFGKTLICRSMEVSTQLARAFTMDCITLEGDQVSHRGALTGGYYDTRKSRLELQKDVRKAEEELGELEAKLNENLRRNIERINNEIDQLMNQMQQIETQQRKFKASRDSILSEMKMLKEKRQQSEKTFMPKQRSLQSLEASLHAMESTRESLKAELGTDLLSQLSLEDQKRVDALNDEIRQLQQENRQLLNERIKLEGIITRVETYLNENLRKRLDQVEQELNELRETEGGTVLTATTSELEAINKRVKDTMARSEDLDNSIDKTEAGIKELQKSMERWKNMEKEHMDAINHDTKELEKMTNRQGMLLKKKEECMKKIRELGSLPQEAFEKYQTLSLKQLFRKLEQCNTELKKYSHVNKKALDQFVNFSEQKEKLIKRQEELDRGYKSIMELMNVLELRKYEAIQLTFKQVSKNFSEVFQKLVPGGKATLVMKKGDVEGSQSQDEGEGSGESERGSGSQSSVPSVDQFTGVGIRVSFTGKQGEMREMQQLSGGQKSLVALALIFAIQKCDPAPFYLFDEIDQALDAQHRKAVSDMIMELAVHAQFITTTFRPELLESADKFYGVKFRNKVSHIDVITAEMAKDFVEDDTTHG

Molecular target: T1, 1×Flag-ADAR1p110 (Adenosine Deaminase Acting on RNA 1 p110) (UniProt P55265)
T1 sequence: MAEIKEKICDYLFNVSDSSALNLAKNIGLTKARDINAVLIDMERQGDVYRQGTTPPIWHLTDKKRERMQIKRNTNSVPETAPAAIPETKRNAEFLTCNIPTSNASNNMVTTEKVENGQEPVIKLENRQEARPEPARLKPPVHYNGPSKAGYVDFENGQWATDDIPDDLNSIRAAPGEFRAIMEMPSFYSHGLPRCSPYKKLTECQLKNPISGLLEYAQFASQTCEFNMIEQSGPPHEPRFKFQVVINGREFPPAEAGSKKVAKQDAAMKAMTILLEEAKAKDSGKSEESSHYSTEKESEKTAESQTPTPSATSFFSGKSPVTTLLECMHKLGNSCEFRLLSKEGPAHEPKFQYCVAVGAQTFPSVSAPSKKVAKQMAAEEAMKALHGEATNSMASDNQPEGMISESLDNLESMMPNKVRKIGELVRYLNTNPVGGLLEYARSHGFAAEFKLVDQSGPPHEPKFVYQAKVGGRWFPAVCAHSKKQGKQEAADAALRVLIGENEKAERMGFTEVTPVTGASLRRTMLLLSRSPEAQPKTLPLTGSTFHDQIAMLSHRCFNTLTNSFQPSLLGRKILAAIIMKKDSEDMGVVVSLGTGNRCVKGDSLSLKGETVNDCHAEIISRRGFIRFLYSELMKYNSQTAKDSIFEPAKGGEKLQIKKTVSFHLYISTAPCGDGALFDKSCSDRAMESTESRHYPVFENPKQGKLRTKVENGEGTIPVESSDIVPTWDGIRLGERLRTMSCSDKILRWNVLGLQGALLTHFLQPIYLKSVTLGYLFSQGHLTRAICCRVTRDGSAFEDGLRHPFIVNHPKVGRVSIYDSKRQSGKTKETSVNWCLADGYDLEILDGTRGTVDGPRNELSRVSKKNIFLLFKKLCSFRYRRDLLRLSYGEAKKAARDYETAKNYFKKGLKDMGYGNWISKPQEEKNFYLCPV
Assay: affinity purification with mass spectrometry

- binding: binds
Substance: Structural Maintenance of Chromosome 3 (SMC3) (from UniProt Q9UQE7 1-1217)

No constants are given. Whether binding was seen depends on the method and setting. Binding seen in cells or lysates may run through a third protein. These calls come from enrichment with a bait or labelling near it, and not all partners need be listed. Where a sequence is shown, tags or fusion partners need not be part of it.
